From the supplement of paper PMC10849652
This is one part of the list.

Sequences of proteins named here, by UniProt entry; tags and fusion partners are left off. A change or cut given only in a name is not applied to a line headed by its entry.
UniProt Q6Y288: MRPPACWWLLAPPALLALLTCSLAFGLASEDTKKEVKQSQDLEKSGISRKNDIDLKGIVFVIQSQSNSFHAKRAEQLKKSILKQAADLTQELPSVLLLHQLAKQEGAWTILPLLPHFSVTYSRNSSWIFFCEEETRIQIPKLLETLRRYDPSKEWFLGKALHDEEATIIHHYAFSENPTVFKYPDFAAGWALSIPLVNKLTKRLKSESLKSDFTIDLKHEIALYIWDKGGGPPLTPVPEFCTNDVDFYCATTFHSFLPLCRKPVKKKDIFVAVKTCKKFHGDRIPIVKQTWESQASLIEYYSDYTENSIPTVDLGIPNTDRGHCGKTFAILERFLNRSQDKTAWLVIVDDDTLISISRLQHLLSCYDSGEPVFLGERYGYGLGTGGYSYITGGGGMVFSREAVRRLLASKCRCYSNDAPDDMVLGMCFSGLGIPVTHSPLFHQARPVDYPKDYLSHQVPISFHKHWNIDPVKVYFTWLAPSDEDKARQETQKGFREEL
UniProt P23634: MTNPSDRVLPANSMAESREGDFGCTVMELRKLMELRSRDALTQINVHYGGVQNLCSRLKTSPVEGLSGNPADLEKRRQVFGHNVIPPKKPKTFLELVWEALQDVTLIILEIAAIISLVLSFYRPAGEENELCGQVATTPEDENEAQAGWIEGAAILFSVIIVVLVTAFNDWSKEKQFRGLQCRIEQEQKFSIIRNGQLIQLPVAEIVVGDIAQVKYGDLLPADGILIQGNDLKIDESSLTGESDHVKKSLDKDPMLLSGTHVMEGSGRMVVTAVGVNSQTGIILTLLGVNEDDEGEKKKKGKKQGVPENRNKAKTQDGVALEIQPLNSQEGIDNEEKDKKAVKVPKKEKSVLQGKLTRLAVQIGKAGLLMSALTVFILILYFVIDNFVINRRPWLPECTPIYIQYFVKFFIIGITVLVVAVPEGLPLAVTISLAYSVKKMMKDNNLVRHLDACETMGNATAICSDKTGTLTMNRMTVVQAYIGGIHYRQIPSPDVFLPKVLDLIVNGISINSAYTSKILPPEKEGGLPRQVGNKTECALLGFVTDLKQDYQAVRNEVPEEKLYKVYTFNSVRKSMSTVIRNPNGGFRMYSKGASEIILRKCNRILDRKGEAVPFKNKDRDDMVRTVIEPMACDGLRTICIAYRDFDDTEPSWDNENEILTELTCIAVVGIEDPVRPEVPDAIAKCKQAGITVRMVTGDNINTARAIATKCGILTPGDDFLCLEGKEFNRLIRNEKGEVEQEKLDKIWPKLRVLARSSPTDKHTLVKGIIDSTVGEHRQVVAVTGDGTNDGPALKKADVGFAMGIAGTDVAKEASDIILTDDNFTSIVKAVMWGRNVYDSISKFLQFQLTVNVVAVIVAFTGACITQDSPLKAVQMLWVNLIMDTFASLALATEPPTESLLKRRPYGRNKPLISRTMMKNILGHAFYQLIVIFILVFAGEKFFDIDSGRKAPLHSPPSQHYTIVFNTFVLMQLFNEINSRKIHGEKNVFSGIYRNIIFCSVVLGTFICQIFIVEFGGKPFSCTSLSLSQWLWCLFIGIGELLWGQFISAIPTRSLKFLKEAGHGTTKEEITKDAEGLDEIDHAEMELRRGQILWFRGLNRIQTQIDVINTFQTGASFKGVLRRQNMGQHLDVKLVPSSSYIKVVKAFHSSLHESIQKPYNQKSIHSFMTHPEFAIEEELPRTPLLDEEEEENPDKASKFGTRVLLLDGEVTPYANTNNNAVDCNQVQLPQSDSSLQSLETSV
UniProt Q9Y6H3: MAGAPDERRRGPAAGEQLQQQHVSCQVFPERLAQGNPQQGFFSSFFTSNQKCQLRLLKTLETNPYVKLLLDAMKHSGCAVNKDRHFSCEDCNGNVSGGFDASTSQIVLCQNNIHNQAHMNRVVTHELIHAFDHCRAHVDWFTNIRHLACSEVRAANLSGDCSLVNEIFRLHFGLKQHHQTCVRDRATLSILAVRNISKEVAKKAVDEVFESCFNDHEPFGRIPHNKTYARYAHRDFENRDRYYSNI
UniProt Q7Z3C6: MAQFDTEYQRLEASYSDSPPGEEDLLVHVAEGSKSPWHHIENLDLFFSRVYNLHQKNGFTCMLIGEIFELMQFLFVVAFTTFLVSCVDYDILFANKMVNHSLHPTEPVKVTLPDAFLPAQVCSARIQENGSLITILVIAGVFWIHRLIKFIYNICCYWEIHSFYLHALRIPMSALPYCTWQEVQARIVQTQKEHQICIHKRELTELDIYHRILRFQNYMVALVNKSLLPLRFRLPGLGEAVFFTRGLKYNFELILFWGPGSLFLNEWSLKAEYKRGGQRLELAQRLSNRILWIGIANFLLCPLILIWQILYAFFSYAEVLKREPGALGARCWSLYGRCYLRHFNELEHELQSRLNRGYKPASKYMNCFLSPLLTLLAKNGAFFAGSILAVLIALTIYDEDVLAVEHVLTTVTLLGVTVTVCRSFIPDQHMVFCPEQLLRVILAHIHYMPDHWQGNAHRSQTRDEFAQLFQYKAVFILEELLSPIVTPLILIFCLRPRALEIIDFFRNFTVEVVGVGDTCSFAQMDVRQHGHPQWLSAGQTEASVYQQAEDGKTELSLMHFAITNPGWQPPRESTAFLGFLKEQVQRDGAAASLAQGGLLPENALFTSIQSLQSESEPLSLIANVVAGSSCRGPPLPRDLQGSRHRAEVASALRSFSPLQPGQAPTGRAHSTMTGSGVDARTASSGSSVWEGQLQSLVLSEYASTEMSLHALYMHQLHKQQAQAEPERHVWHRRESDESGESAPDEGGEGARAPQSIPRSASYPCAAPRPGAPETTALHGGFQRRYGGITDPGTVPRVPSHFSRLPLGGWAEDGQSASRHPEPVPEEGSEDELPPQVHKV
UniProt Q96A05, whole entry, looked up: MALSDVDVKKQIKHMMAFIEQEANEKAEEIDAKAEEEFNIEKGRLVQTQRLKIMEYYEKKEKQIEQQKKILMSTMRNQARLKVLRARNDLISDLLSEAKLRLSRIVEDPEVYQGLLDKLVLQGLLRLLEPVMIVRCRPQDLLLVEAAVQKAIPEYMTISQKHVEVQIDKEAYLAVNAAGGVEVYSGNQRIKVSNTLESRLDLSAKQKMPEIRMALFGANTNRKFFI
UniProt Q9BSB4: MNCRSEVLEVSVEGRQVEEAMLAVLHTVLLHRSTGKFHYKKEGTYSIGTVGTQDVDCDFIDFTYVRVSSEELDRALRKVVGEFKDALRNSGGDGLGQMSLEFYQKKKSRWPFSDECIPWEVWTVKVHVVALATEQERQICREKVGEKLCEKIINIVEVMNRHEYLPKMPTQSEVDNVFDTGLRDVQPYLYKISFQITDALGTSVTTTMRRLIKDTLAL
UniProt P61769, whole entry, looked up: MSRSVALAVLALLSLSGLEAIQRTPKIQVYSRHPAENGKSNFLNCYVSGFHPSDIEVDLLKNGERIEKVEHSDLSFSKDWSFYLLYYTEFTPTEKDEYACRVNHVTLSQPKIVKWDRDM
UniProt Q9NWX5: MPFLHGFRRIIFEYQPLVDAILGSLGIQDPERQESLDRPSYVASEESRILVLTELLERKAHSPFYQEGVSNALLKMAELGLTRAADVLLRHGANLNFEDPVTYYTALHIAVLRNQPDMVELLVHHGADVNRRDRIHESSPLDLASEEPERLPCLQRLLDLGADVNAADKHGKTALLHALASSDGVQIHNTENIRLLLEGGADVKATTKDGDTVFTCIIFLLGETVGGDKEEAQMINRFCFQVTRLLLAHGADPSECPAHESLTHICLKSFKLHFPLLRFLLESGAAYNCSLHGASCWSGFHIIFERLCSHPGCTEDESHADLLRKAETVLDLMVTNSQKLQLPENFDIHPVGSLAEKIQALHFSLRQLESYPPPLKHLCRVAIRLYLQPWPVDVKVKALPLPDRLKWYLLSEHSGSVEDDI
UniProt P36543, whole entry, looked up: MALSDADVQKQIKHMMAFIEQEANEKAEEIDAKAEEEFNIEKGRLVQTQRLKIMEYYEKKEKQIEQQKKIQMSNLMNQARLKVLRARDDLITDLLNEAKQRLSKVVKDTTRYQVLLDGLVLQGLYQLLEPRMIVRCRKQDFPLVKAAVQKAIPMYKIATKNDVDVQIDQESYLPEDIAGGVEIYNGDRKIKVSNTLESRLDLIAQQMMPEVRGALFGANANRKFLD
UniProt Q9NQ11: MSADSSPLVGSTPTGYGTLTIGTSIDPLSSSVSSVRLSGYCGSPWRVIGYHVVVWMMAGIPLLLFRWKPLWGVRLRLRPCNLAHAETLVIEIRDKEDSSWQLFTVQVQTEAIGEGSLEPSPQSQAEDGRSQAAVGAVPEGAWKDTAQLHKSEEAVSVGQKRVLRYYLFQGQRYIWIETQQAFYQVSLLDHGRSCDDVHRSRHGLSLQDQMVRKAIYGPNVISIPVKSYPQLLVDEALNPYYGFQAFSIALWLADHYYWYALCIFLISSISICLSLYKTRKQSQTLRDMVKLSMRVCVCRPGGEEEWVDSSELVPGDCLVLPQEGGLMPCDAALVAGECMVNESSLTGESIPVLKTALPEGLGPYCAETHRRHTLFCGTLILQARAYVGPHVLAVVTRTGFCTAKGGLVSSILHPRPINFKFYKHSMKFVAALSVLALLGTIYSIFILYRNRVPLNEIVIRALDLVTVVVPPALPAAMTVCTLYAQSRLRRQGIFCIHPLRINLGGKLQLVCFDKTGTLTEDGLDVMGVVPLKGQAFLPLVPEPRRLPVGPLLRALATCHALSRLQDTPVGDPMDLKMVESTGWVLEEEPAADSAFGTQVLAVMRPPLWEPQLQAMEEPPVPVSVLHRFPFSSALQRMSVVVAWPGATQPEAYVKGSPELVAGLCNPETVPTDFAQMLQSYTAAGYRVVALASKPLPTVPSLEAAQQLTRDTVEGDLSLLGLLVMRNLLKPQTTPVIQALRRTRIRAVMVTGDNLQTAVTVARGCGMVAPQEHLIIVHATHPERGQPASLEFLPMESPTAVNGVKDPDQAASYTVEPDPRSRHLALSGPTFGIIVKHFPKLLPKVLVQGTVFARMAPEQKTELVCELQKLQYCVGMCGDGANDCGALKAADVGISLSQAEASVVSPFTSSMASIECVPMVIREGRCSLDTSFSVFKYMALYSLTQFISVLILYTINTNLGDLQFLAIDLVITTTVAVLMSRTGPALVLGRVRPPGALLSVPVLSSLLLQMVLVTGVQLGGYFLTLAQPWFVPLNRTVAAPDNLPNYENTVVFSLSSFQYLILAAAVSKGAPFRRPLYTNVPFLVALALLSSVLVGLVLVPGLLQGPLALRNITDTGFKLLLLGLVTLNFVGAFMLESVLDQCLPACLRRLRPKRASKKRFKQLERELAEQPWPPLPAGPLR
UniProt O95352: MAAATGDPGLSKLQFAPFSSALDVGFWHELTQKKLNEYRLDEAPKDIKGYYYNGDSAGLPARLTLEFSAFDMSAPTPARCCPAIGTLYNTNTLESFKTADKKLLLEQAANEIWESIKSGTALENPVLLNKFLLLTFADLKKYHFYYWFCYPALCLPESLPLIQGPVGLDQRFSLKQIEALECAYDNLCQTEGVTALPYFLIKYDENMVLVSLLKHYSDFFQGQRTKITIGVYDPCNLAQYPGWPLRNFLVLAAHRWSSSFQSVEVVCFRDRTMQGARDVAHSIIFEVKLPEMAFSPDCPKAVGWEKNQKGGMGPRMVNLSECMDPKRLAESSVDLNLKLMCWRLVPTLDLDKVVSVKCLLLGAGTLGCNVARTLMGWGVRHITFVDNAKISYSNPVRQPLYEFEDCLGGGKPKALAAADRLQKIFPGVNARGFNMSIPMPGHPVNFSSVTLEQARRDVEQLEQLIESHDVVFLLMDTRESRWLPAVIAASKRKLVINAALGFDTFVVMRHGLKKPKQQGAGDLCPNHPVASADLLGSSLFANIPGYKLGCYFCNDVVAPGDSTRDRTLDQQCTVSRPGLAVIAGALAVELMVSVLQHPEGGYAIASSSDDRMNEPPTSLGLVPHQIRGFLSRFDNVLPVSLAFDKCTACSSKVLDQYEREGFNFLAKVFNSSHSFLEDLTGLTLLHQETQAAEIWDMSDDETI
UniProt Q8NBF6: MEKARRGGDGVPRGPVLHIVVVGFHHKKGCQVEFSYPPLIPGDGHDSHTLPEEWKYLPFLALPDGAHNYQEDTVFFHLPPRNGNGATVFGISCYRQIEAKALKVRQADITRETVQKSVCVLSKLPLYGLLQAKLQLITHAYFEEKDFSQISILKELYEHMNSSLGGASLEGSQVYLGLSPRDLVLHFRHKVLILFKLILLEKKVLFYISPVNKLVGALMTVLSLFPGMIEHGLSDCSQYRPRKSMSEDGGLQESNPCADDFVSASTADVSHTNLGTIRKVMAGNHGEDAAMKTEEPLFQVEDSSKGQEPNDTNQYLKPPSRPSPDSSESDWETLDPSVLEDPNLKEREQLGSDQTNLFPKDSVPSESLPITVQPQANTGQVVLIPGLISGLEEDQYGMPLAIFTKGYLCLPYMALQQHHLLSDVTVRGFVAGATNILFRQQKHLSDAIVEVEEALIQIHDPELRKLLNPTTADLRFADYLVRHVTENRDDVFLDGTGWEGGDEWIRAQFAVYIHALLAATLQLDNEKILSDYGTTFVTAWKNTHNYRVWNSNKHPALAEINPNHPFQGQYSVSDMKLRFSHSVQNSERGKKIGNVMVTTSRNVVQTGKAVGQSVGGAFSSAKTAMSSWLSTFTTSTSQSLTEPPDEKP

These targets were tested with CC(C)(C)Cn1c(N)nc2ccc(-c3[nH]c(C(C)(C)C)nc3-c3ccc(F)cc3)nc21 [ralimetinib] (assay: log2 fold change, soluble protein after heating vs DMSO (PISA); higher = thermal stabilisation; K562 lysate, 10 uM; active = over 0.2 and 3.5 SD of the protein, either way, in both replicates (recomputed)).
In short: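 Log-two fold change in thermal stability relative to solvent controls is reported from duplicates. For each sample, crude K562 extract from dounce-homogenised pellets in PBS pH 7.4 with 1 mM MgCl2, at 1 mg/mL protein, was treated with 10 μM compound for 30 min. Aliquots heated for 3 min across 48°C-58°C were pooled, brought to 0.5% NP-40 at 4°C and cleared at 21,000xg for 90 min. The supernatant was quantified by TMTpro 16plex LC-MS/MS with channel sums equalised.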

log2 fold change, inactive:
B3GLCT (UniProt Q6Y288) -0.024
ATP13A1 (UniProt Q9HD20) 0.029
ATP5F1C (UniProt P36542) -0.017
ATP2B4 (UniProt P23634) -0.056
ATP5F1D (UniProt P30049) -0.057
ATP23 (UniProt Q9Y6H3) -0.004
ATXN3 isoform 1 (UniProt P54252) 0.013
AZGP1 (UniProt P25311) -0.311
ASH2L (UniProt Q9UBL3) 0.02
ATG9A (UniProt Q7Z3C6) 0.024
ATP6V1E2 (UniProt Q96A05) -0.036
ATP1A1 (UniProt P05023) -0.003
ATG101 (UniProt Q9BSB4) 0.036
B2M (UniProt P61769) -0.035
ASB6 (UniProt Q9NWX5) 0.027
ATP11A (UniProt P98196) 0.122
ATP6V1E1 (UniProt P36543) -0.013
ATP5PF isoform 2 (UniProt P18859) -0.003
ATP13A2 (UniProt Q9NQ11) 0.025
ATG7 (UniProt O95352) 0.026
ATRIP (UniProt Q8WXE1) -0.007
AVL9 (UniProt Q8NBF6) 0.059
ATP6V1F isoform 2 (UniProt Q16864) -0.042

Nothing new here: an excerpt of the list.
log2 fold change, inactive:
ATXN3 isoform 1 (UniProt P54252) 0.013
AZGP1 (UniProt P25311) -0.311
